Experimental data from article PMC3972117.
No constants are given. Whether binding was seen depends on the method and setting. Binding seen in cells or lysates may run through a third protein. A yes stands for co-enrichment or nearness to the bait. Other partners may have been found.

Chains of the proteins cited; added tags and fusions are not shown.
UniProt P61073: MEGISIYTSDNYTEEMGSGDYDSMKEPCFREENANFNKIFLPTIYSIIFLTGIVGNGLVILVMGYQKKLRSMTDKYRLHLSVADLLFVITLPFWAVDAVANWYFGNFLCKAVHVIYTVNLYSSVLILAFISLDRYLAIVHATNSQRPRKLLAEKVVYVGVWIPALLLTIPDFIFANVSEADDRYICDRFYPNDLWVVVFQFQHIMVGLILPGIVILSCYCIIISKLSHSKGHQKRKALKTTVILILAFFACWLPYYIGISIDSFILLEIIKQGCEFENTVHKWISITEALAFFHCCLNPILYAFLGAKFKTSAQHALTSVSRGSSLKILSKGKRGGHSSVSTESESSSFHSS
UniProt P41597: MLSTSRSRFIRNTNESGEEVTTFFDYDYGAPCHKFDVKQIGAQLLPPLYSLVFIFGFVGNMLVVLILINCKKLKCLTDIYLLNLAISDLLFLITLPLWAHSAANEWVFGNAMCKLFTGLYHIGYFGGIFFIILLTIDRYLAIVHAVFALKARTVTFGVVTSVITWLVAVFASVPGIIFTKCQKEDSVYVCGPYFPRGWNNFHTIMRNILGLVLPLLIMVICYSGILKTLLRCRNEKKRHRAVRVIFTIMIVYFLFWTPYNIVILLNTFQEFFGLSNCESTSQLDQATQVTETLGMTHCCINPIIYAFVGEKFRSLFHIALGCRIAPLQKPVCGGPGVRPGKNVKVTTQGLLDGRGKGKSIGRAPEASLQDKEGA

Molecular target: CXCR4-BirA (human CXCR4 with the E. coli biotin ligase BirA fused to its N terminus) (human) (UniProt P61073)
Assay: proximity labelling; competition: CXCR4-BirA and CCR2-AP co-expressed in RPE cells with or without CCR2-no AP; biotinylation of CCR2-AP read by flow cytometry

binding: binds
Substance: CCR2-no AP (CCR2 construct lacking the fused acceptor peptide) (from UniProt P41597 1-374) (receptor)
